For this assay, the target named is TNFR2 FRET biosensor (full-length TNFR2 with C-terminal fusion of mNg or ShY) (UniProt P20333). As to the kind of experiment: FRET or BRET; fluorescence lifetime (FLT) FRET in live HEK293T cells; transient co-transfection of donor- and acceptor-tagged copies at a 1:1 donor-to-acceptor ratio, compared with donor only; single or mixed cell populations; also with zafirlukast treatment. (In BRET a luciferase serves as donor, and the signal depends on an acceptor being close.)

The chains behind the UniProt entries cited, without tags or fusion partners. Residues count along the entry.
UniProt P20333, residues 23-461: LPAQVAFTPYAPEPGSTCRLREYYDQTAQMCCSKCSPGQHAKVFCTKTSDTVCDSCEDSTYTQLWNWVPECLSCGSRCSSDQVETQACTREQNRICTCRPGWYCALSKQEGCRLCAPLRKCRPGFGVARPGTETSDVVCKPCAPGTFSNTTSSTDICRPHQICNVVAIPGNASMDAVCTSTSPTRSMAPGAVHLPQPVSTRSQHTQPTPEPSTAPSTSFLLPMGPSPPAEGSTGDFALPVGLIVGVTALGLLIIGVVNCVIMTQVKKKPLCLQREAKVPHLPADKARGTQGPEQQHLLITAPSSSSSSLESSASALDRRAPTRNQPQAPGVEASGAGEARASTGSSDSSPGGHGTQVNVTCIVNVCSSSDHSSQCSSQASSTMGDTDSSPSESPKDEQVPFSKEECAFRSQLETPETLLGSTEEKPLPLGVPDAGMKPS

The results in this text go back to PMC12136217.

No constants are given. Whether binding was seen depends on the method and setting. In cells and extracts the contact can be indirect. Some results given as binding are weak or reduced against the parent protein; the word gives no strength.

Take “TNFR2 FRET biosensor (full-length TNFR2 with C-terminal fusion of mNg or ShY) (from UniProt P20333 23-461) (receptor)”: the binding result is recorded as “binds”.
